PubChem BioAssay AID1259405, NCATS, 2018
Here is an unselected part of about 50,000 reagents. In the full data, about 4,000 (8%) are marked active. 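Mouse siRNA library applied to hamster cells; one well for each siRNA.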 Entries without a mark were called inactive. The numbers tell different reagents against one gene apart.

Aim: 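Silenced genes that increase secreted GFP made by CHO cells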 (primary screen)
Cell system: Chinese hamster CHO-K1 ovary cells with stable secreted eGFP expression
Reagent: single siRNA against mouse genes, 0.8 pmol siRNA per well (2 µl of 400 nM stock)
Time to read-out: 3 days
Read-out: 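Percent of the per-plate non-targeting control median for intracellular GFP per well by laser scanning cytometry and for cell viability by ATP luminescence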
Scale: GFP, % of control: higher = more GFP per well, higher productivity; viability (ATP), % of control: higher = more viable cells (more ATP)
Rule for the call: 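a knock-down is called active if GFP reaches 120% or more of non-targeting control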

no.	Gene	reagent no.	GFP, % of control	viability (ATP), % of control
1	Eepd1	1	110	88.1
2	Eepd1	2	118	77.6
3	Eepd1	3	73.3	68.7
4	Mgrn1	1	88.4	79.6
5	Mgrn1	2	96.2	89.8
6	Mgrn1	3	85.9	91.5
7	Ccna1	1	94.6	80.5
8	Ccna1	2	118	98.2
9	Exo1	1	60.1	72.1
10	Exo1	2	83.1	97.6
11	Exo1	3	53.7	54
12	BC030500	1	61.7	77.6
13	BC030500	2	64	86.8
14	BC030500	3	138 (active)	157
15	Or10g7	1	68	54.7
16	Or10g7	2	76.2	62.5
17	Or10g7	3	49	63.4
18	C1qtnf3	1	43.1	42.4
19	C1qtnf3	2	95.8	85.2
20	C1qtnf3	3	106	89.8
21	Tmem139	1	48	54.1
22	Tmem139	2	149 (active)	97.2
23	Tmem139	3	50.3	65.4
24	Usp8	1	95.7	100
25	Usp8	2	44.2	58.4
26	Usp8	3	55.3	55.7
27	Six3	1	112	51.4
28	Six3	2	72.9	66.4
29	Six3	3	68.3	77.8
30	Ddias	1	77.6	91.3
31	Ddias	2	77.2	90.2
32	Ddias	3	85.6	92.5
33	Adap1	1	108	86.2
34	Adap1	2	190 (active)	119
35	Adap1	3	68.1	82.4
36	Rad9a	1	68.2	61.9
37	Rad9a	2	93.6	78.2
38	Rad9a	3	58.4	73.8
39	Clec1b	1	27.4	26.8
40	Clec1b	2	74.6	83.7
41	Clec1b	3	68.7	67.6
42	P2rx6	1	96	69.5
43	P2rx6	2	73	53.3
44	P2rx6	3	84.6	69.1
45	Mmp24	1	56.3	79.2
46	Mmp24	2	42.9	44.9
47	Ivd	1	85	80
48	Ivd	2	98.4	74.3
49	Ivd	3	77.2	94.9
50	Apoh	1	128 (active)	161
51	Apoh	2	125 (active)	99.8
52	Apoh	3	61.6	83.7
53	Mocs2	1	104	102
54	Mocs2	2	28	42.8
55	Mocs2	3	70.5	112
56	Slc2a12	1	85.3	83.8
57	Slc2a12	2	99.2	83.2
58	Slc2a12	3	69.7	71.6
59	Klk10	1	72.5	88.7
60	Klk10	2	165 (active)	135
61	Klk10	3	12.1	39.2
62	Or5b97	1	145 (active)	73.2
63	Or5b97	2	74.6	78.8
64	Or5b97	3	26.8	22.3
65	Bhlhe40	1	58.9	62.8
66	Bhlhe40	2	99.1	75.9
67	Mycs	1	137 (active)	70.5
68	Mycs	2	72.6	78.9
69	Mycs	3	70.6	83.5
70	Sva	1	87	83.9
71	Sva	2	135 (active)	131
72	Sva	3	134 (active)	122
73	Ca14	1	87.5	75.5
74	Ca14	2	58.9	66.2
75	Trim29	1	81.9	83.8
76	Trim29	2	86.8	68.4
77	Trim29	3	59.1	68.5
78	Apaf1	1	94.3	85.9
79	Apaf1	2	86.3	106
80	Apaf1	3	73	58.3
81	Kcp	1	94.7	56.8
82	Kcp	2	70.3	40.2
83	Kcp	3	193 (active)	108
84	Pcdhb20	1	73.7	73.9
85	Pcdhb20	2	108	79.5
86	Rpl23a	1	57.7	35.1
87	Rpl23a	2	53.1	95.8
88	Rpl23a	3	82.1	73.7
89	Fabp4	1	83.8	61.9
90	Fabp4	2	80.9	69.9
91	Fabp4	3	67.6	71.5
92	Gss	1	32	35.9
93	Gss	2	91.3	91
94	Gss	3	59.2	98.8
95	Zc3h11a	1	84.5	78.9
96	Zc3h11a	2	72.2	50.5
97	Zc3h11a	3	82.2	44.6
98	Cep135	1	69.9	57.3
99	Cep135	2	65	75.2
100	Cep135	3	116	102
101	Rpl18	1	46.8	24.6
102	Rpl18	2	58.5	42.1
103	Rpl18	3	77.6	60.3
104	Atf2	1	48.6	56.6
105	Atf2	2	71.9	79.3
106	Cox6a2	1	72.1	66.3
107	Cox6a2	2	24.8	63.7
108	Cox6a2	3	95.4	46.8
